Taken from: PubChem BioAssay AID504808 (Drosophila RNAi Screening Center, 2011)
Screen: 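Chromatin factors that keep E2F targets switched off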 (primary screen). Cell system: Drosophila S2 cells. Reagent: long dsRNA against Drosophila genes. Read-out: 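Dual luciferase plate measurements; E2F-specific signal taken as firefly over Renilla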. Direction: E2F firefly: higher = more E2F reporter activity; Renilla normaliser: higher = more normaliser reporter signal. Rule for the call: 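a knock-down counted as active when the firefly/Renilla E2F signal rose above 50%, a threshold chosen arbitrarily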.
The deposit covers about 21,000 reagents; below is an unselected part of those that have a named target and a result. Of all reagents, 18 (0.084%) got an active call. 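Raw counts without plate normalisation, one of two replicates; the ratio scores behind the calls were not deposited.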 A plus sign joins genes that one reagent is predicted to hit. No sequences are given here. The record does not give: the amount of reagent, the time to read-out.

For CG8861 [DRSC12731], the entry reads E2F firefly, rep 1 = 73691; Renilla normaliser, rep 1 = 3011; inactive.
CG8861 [DRSC16449] scored E2F firefly, rep 1 = 1.27e5; Renilla normaliser, rep 1 = 8491; inactive.
Against Asph [DRSC06783] the deposit lists E2F firefly, rep 1 = 1.26e5; Renilla normaliser, rep 1 = 4365; inactive.
Against Asph [DRSC07171] the deposit lists E2F firefly, rep 1 = 75158; Renilla normaliser, rep 1 = 3627; inactive.
Against CG31862 [DRSC01245] the deposit lists E2F firefly, rep 1 = 1.32e5; Renilla normaliser, rep 1 = 5302; inactive.
Depletion of Paf-AHalpha [DRSC20267] resulted in: E2F firefly, rep 1 = 1.58e5; Renilla normaliser, rep 1 = 6187; inactive.
Pink1 [DRSC18361] scored E2F firefly, rep 1 = 7166; Renilla normaliser, rep 1 = 764; inactive.
CG5577 [DRSC10519] showed E2F firefly, rep 1 = 68473; Renilla normaliser, rep 1 = 3673; inactive.
For CG11262 [DRSC09831] the deposit lists E2F firefly, rep 1 = 1.41e5; Renilla normaliser, rep 1 = 8470; inactive.
CG10950 [DRSC06020] scored E2F firefly, rep 1 = 1.49e5; Renilla normaliser, rep 1 = 5060; inactive.
After knock-down of CG17078 [DRSC00484], the record shows E2F firefly, rep 1 = 1.53e5; Renilla normaliser, rep 1 = 5772; inactive.
Silencing of Grl58a [DRSC04145] gave: E2F firefly, rep 1 = 1.02e5; Renilla normaliser, rep 1 = 3557; inactive.
Depletion of Inx7 + cm [DRSC18753] gave: E2F firefly, rep 1 = 7822; Renilla normaliser, rep 1 = 772; inactive.
CG14644 [DRSC12230] gave E2F firefly, rep 1 = 1.39e5; Renilla normaliser, rep 1 = 7068; inactive.
Depletion of abs [DRSC12372] came out at: E2F firefly, rep 1 = 77265; Renilla normaliser, rep 1 = 3585; inactive.
Knock-down of Stim [DRSC20158] resulted in: E2F firefly, rep 1 = 8478; Renilla normaliser, rep 1 = 768; inactive.
Silencing of CG43163 [DRSC10745] resulted in: E2F firefly, rep 1 = 96023; Renilla normaliser, rep 1 = 4101; inactive.
After knock-down of CG43163 [DRSC10748], the screen gave E2F firefly, rep 1 = 96520; Renilla normaliser, rep 1 = 4442; inactive.
alphaKap4 [DRSC09823] scored E2F firefly, rep 1 = 85432; Renilla normaliser, rep 1 = 3204; inactive.
With knock-down of CG13403 [DRSC19535] the results were E2F firefly, rep 1 = 2.31e5; Renilla normaliser, rep 1 = 6331; inactive.
Silencing of CG10195 [DRSC02026] came out at: E2F firefly, rep 1 = 96931; Renilla normaliser, rep 1 = 4103; inactive.
After knock-down of tamo [DRSC04446], the screen gave E2F firefly, rep 1 = 80757; Renilla normaliser, rep 1 = 3732; inactive.
Depletion of Cox10 [DRSC02804] came out at: E2F firefly, rep 1 = 75226; Renilla normaliser, rep 1 = 3792; inactive.
Silencing of sac [DRSC12237] came out at: E2F firefly, rep 1 = 1.34e5; Renilla normaliser, rep 1 = 7773; inactive.
Against aop [DRSC00801], the values are E2F firefly, rep 1 = 1.48e5; Renilla normaliser, rep 1 = 4837; inactive.
After knock-down of wgn [DRSC19998], the screen gave E2F firefly, rep 1 = 1.19e5; Renilla normaliser, rep 1 = 5167; inactive.
Against opa [DRSC12384], the entry reads E2F firefly, rep 1 = 1.20e5; Renilla normaliser, rep 1 = 5571; inactive.
gwl [DRSC16305] scored E2F firefly, rep 1 = 79836; Renilla normaliser, rep 1 = 3341; inactive.

A portion taken from the entries so far:
CG11262 [DRSC09831] | E2F firefly, rep 1: 1.41e5; Renilla normaliser, rep 1: 8470; outcome: inactive
CG10950 [DRSC06020] | E2F firefly, rep 1: 1.49e5; Renilla normaliser, rep 1: 5060; outcome: inactive
